# Experiment: in vitro
# Conditions: African green monkey
structure (smiles),measurement,value
CCC(CC)COC(=O)[C@H](C)N[P@](=O)(OC[C@H]1O[C@@](C#N)(c2ccc3c(N)ncnn23)[C@H](O)[C@@H]1O)Oc1ccccc1 [Remdesivir],CC50 at 72 h,> 50 µM
